In publication PMC9376731:
Results are given in words; binding and its absence hold for the method and conditions named. In cells and extracts the contact can be indirect. Here binding means that the protein was enriched with, or labelled near, the bait; the list need not be complete. One block for each binder: values may come before it.

Molecular target: T1, fidgetin (mouse (endogenous in mouse oocytes)) (UniProt Q9ERZ6)
T1 sequence: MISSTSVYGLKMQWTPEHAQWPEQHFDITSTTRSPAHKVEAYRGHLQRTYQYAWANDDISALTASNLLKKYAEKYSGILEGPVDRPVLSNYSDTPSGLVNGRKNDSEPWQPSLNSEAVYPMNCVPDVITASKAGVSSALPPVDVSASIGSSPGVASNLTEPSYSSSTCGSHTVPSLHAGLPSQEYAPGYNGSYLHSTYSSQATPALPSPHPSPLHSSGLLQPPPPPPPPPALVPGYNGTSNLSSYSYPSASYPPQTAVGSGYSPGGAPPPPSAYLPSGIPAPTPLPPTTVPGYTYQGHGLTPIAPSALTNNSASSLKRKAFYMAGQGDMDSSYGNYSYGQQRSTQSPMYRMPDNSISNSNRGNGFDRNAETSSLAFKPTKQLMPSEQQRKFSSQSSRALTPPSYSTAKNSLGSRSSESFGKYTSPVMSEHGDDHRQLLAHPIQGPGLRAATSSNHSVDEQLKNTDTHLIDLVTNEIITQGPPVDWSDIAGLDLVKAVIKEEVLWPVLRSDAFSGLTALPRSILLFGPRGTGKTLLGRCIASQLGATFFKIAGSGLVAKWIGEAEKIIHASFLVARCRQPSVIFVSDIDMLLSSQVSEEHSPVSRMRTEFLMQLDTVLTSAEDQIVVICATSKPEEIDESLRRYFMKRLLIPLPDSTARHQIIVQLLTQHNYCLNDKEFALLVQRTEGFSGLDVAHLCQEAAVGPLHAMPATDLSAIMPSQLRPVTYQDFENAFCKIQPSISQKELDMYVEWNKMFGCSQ
Test: affinity purification with mass spectrometry; immunoprecipitation from lysate of 600 mouse oocytes with rabbit anti-fidgetin antibody on protein-A/G beads, beside control rabbit IgG; SDS-PAGE, silver staining, gel regions cut and sent for LC-MS

B3: ZP1 (protein, UniProt Q62005 21-546)
chain: QRLHLEPGFEYSYDCGVRGMQLLVFPRPNQTVQFKVLDEFGNRFEVNNCSICYHWVTSEAQEHTVFSADYKGCHVLEKDGRFHLRVFIQAVLPNGRVDIAQDVTLICPKPDHTVTPDPYLAPPTTPEPFTPHAFALHPIPDHTLAGSGHTGLTTLYPEQSFIHPTPAPPSLGPGPAGSTVPHSQWGTLEPWELTELDSVGTHLPQERCQVASGHIPCMVNGSSKETCQQAGCCYDSTKEEPCYYGNTVTLQCFKSGYFTLVMSQETALTHGVLLDNVHLAYAPNGCPPTQKTSAFVVFHVPLTLCGTAIQVVGEQLIYENQLVSDIDVQKGPQGSITRDSAFRLHVRCIFNASDFLPIQASIFSPQPPAPVTQSGPLRLELRIATDKTFSSYYQGSDYPLVRLLREPVYVEVRLLQRTDPSLVLVLHQCWATPTTSPFEQPQWPILSDGCPFKGDNYRTQVVAADREALPFWSHYQRFTITTFMLLDSSSQNALRGQVYFFCSASACHPLGSDTCSTTCDSGIARR
binding: binds

B4: ZP2 (protein, UniProt P20239 35-633)
chain: VSLPQSENPAFPGTLICDKDEVRIEFSSRFDMEKWNPSVVDTLGSEILNCTYALDLERFVLKFPYETCTIKVVGGYQVNIRVGDTTTDVRYKDDMYHFFCPAIQAETHEISEIVVCRRDLISFSFPQLFSRLADENQNVSEMGWIVKIGNGTRAHILPLKDAIVQGFNLLIDSQKVTLHVPANATGIVHYVQESSYLYTVQLELLFSTTGQKIVFSSHAICAPDLSVACNATHMTLTIPEFPGKLESVDFGQWSIPEDQWHANGIDKEATNGLRLNFRKSLLKTKPSEKCPFYQFYLSSLKLTFYFQGNMLSTVIDPECHCESPVSIDELCAQDGFMDFEVYSHQTKPALNLDTLLVGNSSCQPIFKVQSVGLARFHIPLNGCGTRQKFEGDKVIYENEIHALWENPPSNIVFRNSEFRMTVRCYYIRDSMLLNAHVKGHPSPEAFVKPGPLVLVLQTYPDQSYQRPYRKDEYPLVRYLRQPIYMEVKVLSRNDPNIKLVLDDCWATSSEDPASAPQWQIVMDGCEYELDNYRTTFHPAGSSAAHSGHYQRFDVKTFAFVSEARGLSSLIYFHCSALICNQVSLDSPLCSVTCPASLRS
binding: binds

Other lines, results leading:

binding: binds
B1: fidgetin-like 1 (protein, UniProt Q8BPY9 1-683)
chain: METSSSMSVETTRSVQVDEWQKNYCVVTSSICTPKQKADAYRALLLHIQYAYANSEISQVFATNLFKRYTEKYSAIIDSDNVVTGLNNYAESIFALAGSRQADSNKWQSGLSIDNVFKMSCVQEMMQAGKKFEESLLEPADASVVLCKEPTAFEVPQLSVCGGSEDADILSSSGHDTDKTQAIPGSSLRCSPFQSARLPKETNTTKTCLTSSTSLGESATAAFHMTPLFGNTEKDTQSFPKTSTGLNMFLSNLSCVPSGCENPQERKAFNDSDIIDILSNPTLNKAPSKTEDRGRREDNSLPTFKTAKEQLWVDQKKKGHQSQHTSKSSNGVMKKSLGAGRSRGIFGKFVPPVSNKQDGSEQHAKKHKSSRAGSAEPAHLTDDCLKNVEPRMVELIMNEIMDHGPPVHWDDIAGVEFAKATIKEIVVWPMMRPDIFTGLRGPPKGILLFGPPGTGKTLIGKCIASQSGATFFSISASSLTSKWVGEGEKMVRALFAVARCQQPAVIFIDEIDSLLSQRGDGEHESSRRIKTEFLVQLDGATTSSEDRILVVGATNRPQEIDEAARRRLVKRLYIPLPEASARKQIVGNLMSKEQCCLSDEETDLVVQQSDGFSGADMTQLCREASLGPIRSLHAADIATISPDQVRPIAYIDFENAFKTVRPTVSPKDLELYENWNETFGCGK

binding: binds
B2: ZP3 (protein, UniProt P10761 23-351)
chain: QTLWLLPGGTPTPVGSSSPVKVECLEAELVVTVSRDLFGTGKLVQPGDLTLGSEGCQPRVSVDTDVVRFNAQLHECSSRVQMTKDALVYSTFLLHDPRPVSGLSILRTNRVEVPIECRYPRQGNVSSHPIQPTWVPFRATVSSEEKLAFSLRLMEENWNTEKSAPTFHLGEVAHLQAEVQTGSHLPLQLFVDHCVATPSPLPDPNSSPYHFIVDFHGCLVDGLSESFSAFQVPRPRPETLQFTVDVFHFANSSRNTLYITCHLKVAPANQIPDKLNKACSFNKTSQSWLPVEGDADICDCCSHGNCSNSSSSQFQIHGPRQWSKLVSRN
